According to paper doi:10.1101/2022.01.12.476066:
No constants are given. Whether binding was seen depends on the method and setting. Some binding calls cover weakened binding; strength is not graded here. Where a sequence is shown, tags or fusion partners need not be part of it.

Sequences of proteins named here, by UniProt entry; tags and fusion partners are left off. A change or cut given only in a name is not applied to a line headed by its entry. Residues count along the entry.
GST-Epac1 (recombinant full-length human Epac1 as a Glutathione S-transferase fusion) (O95398, residues 43-923): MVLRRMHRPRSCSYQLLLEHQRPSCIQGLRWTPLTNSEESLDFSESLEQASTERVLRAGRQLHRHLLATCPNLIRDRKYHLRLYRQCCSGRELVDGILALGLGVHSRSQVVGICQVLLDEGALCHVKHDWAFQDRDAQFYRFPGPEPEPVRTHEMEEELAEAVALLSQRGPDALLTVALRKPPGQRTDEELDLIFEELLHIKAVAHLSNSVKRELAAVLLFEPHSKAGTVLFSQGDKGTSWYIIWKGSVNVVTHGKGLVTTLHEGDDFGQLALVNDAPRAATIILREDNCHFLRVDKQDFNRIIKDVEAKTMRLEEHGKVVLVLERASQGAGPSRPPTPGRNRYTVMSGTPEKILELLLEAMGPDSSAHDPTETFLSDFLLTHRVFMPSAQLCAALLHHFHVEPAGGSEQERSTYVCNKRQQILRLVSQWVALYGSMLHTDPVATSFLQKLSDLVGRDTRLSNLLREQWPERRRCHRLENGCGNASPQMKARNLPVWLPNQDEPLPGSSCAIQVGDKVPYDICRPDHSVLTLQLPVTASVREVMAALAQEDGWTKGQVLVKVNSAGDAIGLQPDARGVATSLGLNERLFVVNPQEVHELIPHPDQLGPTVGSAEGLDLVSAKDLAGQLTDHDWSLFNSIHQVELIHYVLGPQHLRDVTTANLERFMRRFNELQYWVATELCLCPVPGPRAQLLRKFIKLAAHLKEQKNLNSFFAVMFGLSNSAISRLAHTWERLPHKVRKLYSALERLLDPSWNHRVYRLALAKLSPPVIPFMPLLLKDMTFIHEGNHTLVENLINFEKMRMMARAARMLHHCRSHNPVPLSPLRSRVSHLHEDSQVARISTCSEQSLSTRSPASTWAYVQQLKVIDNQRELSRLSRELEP
GST-Δ(1-148)Epac1 (O95398, residues 191-923): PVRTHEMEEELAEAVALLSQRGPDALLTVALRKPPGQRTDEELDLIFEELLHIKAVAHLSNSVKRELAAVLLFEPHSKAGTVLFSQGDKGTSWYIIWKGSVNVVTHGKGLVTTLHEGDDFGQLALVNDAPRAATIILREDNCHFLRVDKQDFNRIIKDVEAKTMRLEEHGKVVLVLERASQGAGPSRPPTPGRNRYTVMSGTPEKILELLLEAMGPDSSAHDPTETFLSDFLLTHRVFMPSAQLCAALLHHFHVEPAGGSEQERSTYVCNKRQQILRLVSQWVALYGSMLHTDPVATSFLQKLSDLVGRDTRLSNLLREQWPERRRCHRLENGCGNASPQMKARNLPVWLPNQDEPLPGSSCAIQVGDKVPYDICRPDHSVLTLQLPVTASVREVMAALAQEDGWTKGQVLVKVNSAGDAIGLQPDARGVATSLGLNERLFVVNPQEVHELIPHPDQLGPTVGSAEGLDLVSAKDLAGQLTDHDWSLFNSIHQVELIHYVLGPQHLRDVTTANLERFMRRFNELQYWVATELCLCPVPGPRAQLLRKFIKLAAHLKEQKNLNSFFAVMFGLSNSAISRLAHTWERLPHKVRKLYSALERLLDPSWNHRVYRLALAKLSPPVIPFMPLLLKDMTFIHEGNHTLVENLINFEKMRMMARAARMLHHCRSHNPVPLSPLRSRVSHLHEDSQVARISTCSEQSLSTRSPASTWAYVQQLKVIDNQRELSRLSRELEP

Molecular target: T1, His6-AOS1/UBA2 (recombinant SUMO-activating enzyme E1) (UniProt Q9UBE0)
T1 sequence 1: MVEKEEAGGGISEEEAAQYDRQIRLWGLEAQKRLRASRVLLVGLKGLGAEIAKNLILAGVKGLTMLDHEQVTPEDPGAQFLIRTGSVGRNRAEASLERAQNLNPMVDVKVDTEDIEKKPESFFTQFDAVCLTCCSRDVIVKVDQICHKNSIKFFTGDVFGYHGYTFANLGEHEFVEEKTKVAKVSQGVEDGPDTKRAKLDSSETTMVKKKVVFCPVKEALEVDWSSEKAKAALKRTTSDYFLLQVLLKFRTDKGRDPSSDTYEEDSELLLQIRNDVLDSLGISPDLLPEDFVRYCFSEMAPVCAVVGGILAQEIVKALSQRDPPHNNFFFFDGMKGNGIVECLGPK
T1 sequence 2: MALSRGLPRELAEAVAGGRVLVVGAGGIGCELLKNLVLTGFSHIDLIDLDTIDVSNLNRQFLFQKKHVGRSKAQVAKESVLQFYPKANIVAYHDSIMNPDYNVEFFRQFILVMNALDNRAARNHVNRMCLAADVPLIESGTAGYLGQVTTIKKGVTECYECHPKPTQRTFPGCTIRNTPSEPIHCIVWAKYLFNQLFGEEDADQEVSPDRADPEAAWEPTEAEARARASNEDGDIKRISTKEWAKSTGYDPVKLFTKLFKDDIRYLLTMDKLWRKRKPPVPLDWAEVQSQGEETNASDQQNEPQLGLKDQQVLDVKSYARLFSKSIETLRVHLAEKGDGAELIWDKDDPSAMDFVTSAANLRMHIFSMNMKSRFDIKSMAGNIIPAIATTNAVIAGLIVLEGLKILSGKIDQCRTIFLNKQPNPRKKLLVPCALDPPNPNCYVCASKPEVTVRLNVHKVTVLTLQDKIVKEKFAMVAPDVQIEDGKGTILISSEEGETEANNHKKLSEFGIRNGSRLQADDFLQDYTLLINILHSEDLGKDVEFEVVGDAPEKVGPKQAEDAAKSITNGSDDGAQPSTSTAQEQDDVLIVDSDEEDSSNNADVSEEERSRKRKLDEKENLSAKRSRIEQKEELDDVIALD
Assay: pull-down

GST-Epac1 (recombinant full-length human Epac1 as a Glutathione S-transferase fusion) (from UniProt O95398-3 1-881)
binding: binds

GST-Δ(1-148)Epac1 (from UniProt O95398-3 149-881) (domain or fragment)
binding: binds
